At least one structure is not confirmed: it was looked up by name or label, or the drawing left a doubt.
Tested on: NZBWF1/J mice
Test: Murine NZB/W F1 lupus model
Type: in vivo, mouse
Conditions: vs vehicle
Description: Female NZBWF1/J mice (n=60) that were 8 weeks old on arrival and weighed approximately 35-51 grams (mean 42 g) at enrollment (mouse age approx. 23 weeks) were obtained from The Jackson Laboratory, Bar Harbor, Me. (stock number 100008). Animals were identified by a distinct number of ink marks at the base of the tail delineating animal number. After enrollment, all cages were labeled with protocol number, group number, and animal numbers.
Mice were terminated at age 43 weeks (day 140).
All dose solutions were prepared to deliver in 10 ml/kg (0.3 ml/30 g mouse).
Body weights were measured and recorded prior to study initiation for randomization, on the first day of dosing prior to dosing, and weekly throughout the study. Body weights were also recorded at scheduled termination points and as needed if test subjects appeared to decrease in weight by visual inspection. The animals were observed daily for significant clinical signs, morbidity and mortality.
Urine from each animal was tested weekly (beginning at mouse age 23 weeks) for proteinuria using Clinitech Multistick test strips (Bayer).
At necropsy, animals were anesthetized with isoflorane and bled via cardiac puncture for serum (for clinical chemistry analysis) and plasma (for Anti-dsDNA ELISA and PK). Terminal urine was collected and assessed. Spleens and kidneys (paired) were collected, weighed, and placed in 10% NBF. Serum obtained at necropsy was sent to Antech Diagnostics for analysis. Terminal plasma samples were split with half being used for Anti-dsDNA ELISA and the other half being shipped to the sponsor.
Anti-dsDNA IgG analysis was performed on days 0, 49, 98, and 140 (mouse age 23, 30, 37, and 43 weeks). Anti-dsDNA IgG levels were determined using an Anti-dsDNA IgG ELISA Kit (Alpha Diagnostic, kit #5120, lot #90903K4) following manufacturer's instructions.
Blood samples for clinical chemistry evaluation were collected at termination via cardiac puncture from Isoflurane anesthetized animals into serum separator microtainer tubes. Serum was sent to Antech Diagnostics for analysis.
The following parameters were measured: Albumin (ALB), Albumin: Globulin ratio (A/G), Alkaline phosphatase (ALK), Alanine aminotransferase (ALT), Aspartate aminotransferase (AST), Calcium (CA), Magnesium (Mg), Phosphorous (P), Globulin (GLOB), Electrolytes (Sodium (Na), Potassium (K), Chloride (Cl)), Gamma glutamyltransferase (GGT), Total bilirubin (TBILI), Amylase (AMY), Lipase (LIP), Osmolality, Triglycerides (TRIG), Total cholesterol (CHOL), Urea nitrogen (BUN), Creatinine (CREAT), Glucose (GLU), Total protein (TP), and Creatinine kinase (CPK).
Histopathologic evaluation was performed on kidneys. Kidneys from all surviving animals were examined microscopically by a board certified veterinary pathologist and observations were entered into a computer-assisted data retrieval system. Kidney sections were stained with Masson's Trichrome, or Hematoxylin and Eosin. To maintain blinding of the analysis, slides were labeled with the animal number with no reference to treatment group.
Kidneys were scored according to the following system (developed by Chan O, Madaio M P, Shlomchik M J. The roles of B cells in MRL/lpr murine lupus. Annals New York Academy of Sciences, 1997; 815:75-82), modified to suit the lesion severity.
• 0=Normal. • 1=Focal or multifocal, minimal to mild, early proliferative. • 2=Multifocal mild to moderate or mild diffuse proliferative. • 3=Diffuse moderate proliferative with or without multifocal severe areas. • 4=Marked diffuse proliferative, with crescents/sclerosis, multifocal protein casts present. • 5=Severe diffuse proliferative, with crescents/sclerosis, diffuse protein casts present. […]

[1] = serum at termination, Compound 292 (1, 5, 10 mg/kg), Dex 2 mg/kg
[2] = serum at termination, Dex 2 mg/kg

## C[C@@H]1C[C@H]2[C@@H]3CCC4=CC(=O)C=C[C@]4(C)[C@@]3(F)[C@@H](O)C[C@]2(C)[C@@]1(O)C(=O)CO [Dex, dexamethasone, reference compound]
2 mg/kg PO QD, days 49, 98, 140 (age 30, 37, 43 wk)
  Plasma anti-dsDNA IgG levels: significantly reduced
2 mg/kg PO QD, mouse age 25 wk to 41 wk
  Disease-induced body weight loss: significantly inhibited
2 mg/kg PO QD, p<0.05 at mouse age 27-30, 32, 34-43 wk
  Urine protein levels: significantly reduced
Serum at termination, Compound 292 5 mg/kg, Dex 2 mg/kg
  Amylase (AMY): significantly reduced
Serum at termination, Compound 292 10 mg/kg, Dex 2 mg/kg
  Magnesium (Mg): significantly increased
[1]
  Albumin (ALB): significantly increased
  Albumin/globulin ratio (A/G): significantly increased
  BUN/creatinine ratio: significantly reduced
  Blood urea nitrogen (BUN): significantly reduced
  Calcium (CA): significantly increased
  Creatine kinase (CPK): significantly reduced
  Globulin (GLOB): significantly reduced
  Triglycerides (TRIG): significantly reduced
[2]
  Alkaline phosphatase (ALK): significantly increased
  Glucose (GLU): significantly increased
  Potassium (K): significantly reduced
  Sodium/potassium ratio (Na/K): significantly increased
